These are yes or no findings as the source states them, for the method shown. In cells and extracts the contact can be indirect.

Protein sequences, listed by entry. Tags and fused reporters are not part of them.
UniProt Q8C6L5: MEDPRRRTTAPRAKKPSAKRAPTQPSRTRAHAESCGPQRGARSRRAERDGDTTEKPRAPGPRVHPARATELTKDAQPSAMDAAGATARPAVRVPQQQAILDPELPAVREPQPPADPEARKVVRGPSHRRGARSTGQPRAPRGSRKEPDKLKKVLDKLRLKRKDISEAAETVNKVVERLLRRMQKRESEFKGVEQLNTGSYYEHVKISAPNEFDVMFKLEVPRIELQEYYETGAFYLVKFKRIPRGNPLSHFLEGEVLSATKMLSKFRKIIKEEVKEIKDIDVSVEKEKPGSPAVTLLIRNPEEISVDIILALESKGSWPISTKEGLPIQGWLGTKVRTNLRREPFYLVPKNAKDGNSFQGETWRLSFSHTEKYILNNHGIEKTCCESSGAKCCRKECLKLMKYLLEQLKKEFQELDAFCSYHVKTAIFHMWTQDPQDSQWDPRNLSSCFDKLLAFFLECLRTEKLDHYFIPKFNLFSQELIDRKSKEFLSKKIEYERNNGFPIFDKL

The target in the assay is cyclic GMP-AMP (cGAMP) synthase (cGAS) (UniProt Q8C6L5). Kind of assay: co-IP; HEK293 cells expressing the indicated plasmids, stimulated with double-stranded DNA for 6 h; lysates immunoprecipitated with anti-HA Ab, then immunoblotting.

B1: TRAF-family member associated NF-κB activator (TANK) (protein, UniProt P70347 1-448)
chain: MSLKRHSLRRNACHLETRAGIPTILYSDATGQRGMDKNIGEQLNRAYEAFRQACMDRDSAVRELQQKQTENYEQRIREQQEQLSFQQNLIDRLKSQLLLVDSSRDNSYGYVPLLEDSDRRKNNLTLDEPHDKVKLGTLRDKQSKVRRQEVSSGKESAKGLNIPLHHERDNIEKTFWDLKEEFHRICLLAKAQKDHLSKLNIPDIATDTQCSVPIQCTDKTEKQEALFKPQAKDDINRGMSCVTAVTPRGLGRDEEDTSFESLSKFNVKFPPMDNDSIFLHSTPEAPSILAPATPETVCQDRFNMEVRDNPGNFVKTEETLFEIQGIDPITSAIQNLKTTDKTNPSNLRATCLPAGDHNVFYVNTFPLQDPPDAPFPSLDSPGKAVRGPQQPFWKPFLNQDTDLVVPSDSDSELLKPLVCEFCQELFPPSITSRGDFLRHLNTHFNGET
With B1, the binding result is listed as “no binding”.

(Values after paper PMC8616552.)
